Experimental data taken from US20150297605A1, “METHODS FOR TREATING CANCER USING TOR KINASE INHIBITOR COMBINATION THERAPY” (Signal Pharmaceuticals, LLC, priority 2014, published 2015).
At least one compound was matched to its structure with a doubt left.

Tests used:
[1] = tested on: breast cancer cell line panel (seventeen cell lines); experiment: Anti-proliferation assay (ATP Lite), breast cancer cell line panel; format: cell-based; settings: Compound 1 in combination with certain second active agents; multiple breast cancer cell lines
[2] = tested on: 5637 and SKOV3 cancer cell lines; experiment: Anti-proliferation assay (CellTiter-Glo), Bliss independence model, overall conclusion; format: cell-based; settings: combination with romidepsin
Method: Anti-Proliferation Assay. […] Cells were thawed from a liquid nitrogen preserved state. Once cells were expanded and divided at their expected doubling times, screening began. Cells were seeded in their respective growth media in 96-well tissue culture treated plates at 2000 cells/well and placed in incubators at 37° C. the night before treatment. […] These T zero (T0) plates were read using luminescence on Spectramax Plate Readers. Treated assay plates were incubated with Compound for seventy-two hours. After seventy-two hours, plates were developed for endpoint analysis using CellTiter-Glo. The calculation for synergy score is provided below.
Growth Inhibition (GI) was used as a measure of cell viability. The cell viability of vehicle was measured at the time of dosing (T0) and after seventy-two hours (T72). A GI reading of 0% represents no growth inhibition—cells treated with compound and T72 vehicle signals are matched. A GI 100% represents complete growth inhibition—cells treated by compound and T0 vehicle signals are matched. […] A GI 200% represents complete death of all cells in the culture well. […] GI is calculated by applying the following test and equation: […]
We next compared the expected compound effect to the observed compound effect, and calculated the differences between the observed and the expected cell viability, expressed as % of control. […]

CCN1C(=O)CNc2ncc(-c3ccc(-c4nc[nH]n4)nc3C)nc21 [Compound 1, 1-ethyl-7-(2-methyl-6-(1H-1,2,4-triazol-3-yl)pyridin-3-yl)-3,4-dihydropyrazino[2,3-b]pyrazin-2(1H)-one]
combination effect (conclusion in words) [1]: synergistic effects | combination effect (conclusion in words) [2]: synergism was observed
